Experimental data taken from PMC5833612.
For at least one entry, the source does not settle the construct or the ends of the probe. Weaker means in comparison with the reference protein, sequence or condition of that experiment. Protein sequences can lack the tags named with them. At least one verdict was read from the data and is not stated in words by the source.

Target: T1, GST-FOXM1-DBD (UniProt Q08050)
T1 sequence (looked up): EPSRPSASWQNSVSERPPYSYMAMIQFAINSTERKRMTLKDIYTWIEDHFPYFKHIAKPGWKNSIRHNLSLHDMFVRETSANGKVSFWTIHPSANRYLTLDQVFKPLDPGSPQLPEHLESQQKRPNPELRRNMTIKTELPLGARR
Assay: EMSA
Details: 5' iSpC3 spacer between dye and DNA, EMSA: 20 mM Tris pH 8.0, 50 mM KCl, 5 mM MgCl2, 1 mM DTT, 10 uL, 1 h at room temperature, 6% native gel at 4 C, recombinant protein, residues 221-365, label: 5' 6-FAM on forward strand

AAACAAACAAACAATC (double strand) [FOXM1 dsDNA consensus oligonucleotide]
binding result (2 uM protein, 100 nM DNA, 5 mM Mg2+, no honokiol): binds | binding result (100 uM honokiol, 2 uM protein, 100 nM DNA, 5 mM Mg2+): binds more weakly | binding result (2,2-dihydroxybiphenyl (no interference, data not shown)): binds | binding result (2-allylphenol (no interference, data not shown)): binds | binding result (O-eugenol (no interference, data not shown)): binds | binding result (eugenol (no interference, data not shown)): binds
